The source of these data is publication PMC4797271.

Construct, isoform or probe ends are uncertain for at least one entry. A weaker result is weaker than the reference pair of the same experiment. Where a protein sequence is shown, tags need not be part of it.

For this data set, the target named is T1, ComA (UniProt P14204).
T1 sequence (looked up, limits assumed): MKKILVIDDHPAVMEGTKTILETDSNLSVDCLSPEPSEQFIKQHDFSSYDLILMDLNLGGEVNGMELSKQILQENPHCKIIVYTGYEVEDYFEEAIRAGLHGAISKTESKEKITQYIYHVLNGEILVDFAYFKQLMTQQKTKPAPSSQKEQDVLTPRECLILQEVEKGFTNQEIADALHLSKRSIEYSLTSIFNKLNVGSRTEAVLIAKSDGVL
The experiment in a line: EMSA. The conditions noted are these: EMSA: 10 mM HEPES pH 7.6, 2 mM MgCl2, 0.1 mM EDTA, 200 mM KCl, 5 mM DTT, 10% glycerol, 10 ng DNA in 15 ul, 20 min, room temperature, recombinant protein, protein details: N-terminal His6 (from expression primer), label: 5' biotin on strand 1. (In EMSA bound probe runs differently from free probe, usually more slowly.)

Regarding “AAACTGGAATCGAAACTTTGCGGCCATTTGCGGTGATAAAAACATTTTT (double strand) [PDR n4]”, the binding result (binds at higher ComA) is “binds more weakly”.

On to “ATGTTTAGTGGAAATGATTGCGGCATCTCCGCAAAAAATATTGCTGTAAAT (double strand) [PIR n5]”, for which, for the setting “tolerated, n=4 optimal”, the binding result was “binds more weakly”.
